Data reported in publication PMC2691592.
Results are given in words; binding and its absence hold for the method and conditions named. Binding seen in cells or lysates may run through a third protein. Some results given as binding are weak or reduced against the parent protein; the word gives no strength.

Protein sequences, listed by entry. Tags and fused reporters are not part of them. Residues count along the entry.
UniProt P34545, residues 1-1620: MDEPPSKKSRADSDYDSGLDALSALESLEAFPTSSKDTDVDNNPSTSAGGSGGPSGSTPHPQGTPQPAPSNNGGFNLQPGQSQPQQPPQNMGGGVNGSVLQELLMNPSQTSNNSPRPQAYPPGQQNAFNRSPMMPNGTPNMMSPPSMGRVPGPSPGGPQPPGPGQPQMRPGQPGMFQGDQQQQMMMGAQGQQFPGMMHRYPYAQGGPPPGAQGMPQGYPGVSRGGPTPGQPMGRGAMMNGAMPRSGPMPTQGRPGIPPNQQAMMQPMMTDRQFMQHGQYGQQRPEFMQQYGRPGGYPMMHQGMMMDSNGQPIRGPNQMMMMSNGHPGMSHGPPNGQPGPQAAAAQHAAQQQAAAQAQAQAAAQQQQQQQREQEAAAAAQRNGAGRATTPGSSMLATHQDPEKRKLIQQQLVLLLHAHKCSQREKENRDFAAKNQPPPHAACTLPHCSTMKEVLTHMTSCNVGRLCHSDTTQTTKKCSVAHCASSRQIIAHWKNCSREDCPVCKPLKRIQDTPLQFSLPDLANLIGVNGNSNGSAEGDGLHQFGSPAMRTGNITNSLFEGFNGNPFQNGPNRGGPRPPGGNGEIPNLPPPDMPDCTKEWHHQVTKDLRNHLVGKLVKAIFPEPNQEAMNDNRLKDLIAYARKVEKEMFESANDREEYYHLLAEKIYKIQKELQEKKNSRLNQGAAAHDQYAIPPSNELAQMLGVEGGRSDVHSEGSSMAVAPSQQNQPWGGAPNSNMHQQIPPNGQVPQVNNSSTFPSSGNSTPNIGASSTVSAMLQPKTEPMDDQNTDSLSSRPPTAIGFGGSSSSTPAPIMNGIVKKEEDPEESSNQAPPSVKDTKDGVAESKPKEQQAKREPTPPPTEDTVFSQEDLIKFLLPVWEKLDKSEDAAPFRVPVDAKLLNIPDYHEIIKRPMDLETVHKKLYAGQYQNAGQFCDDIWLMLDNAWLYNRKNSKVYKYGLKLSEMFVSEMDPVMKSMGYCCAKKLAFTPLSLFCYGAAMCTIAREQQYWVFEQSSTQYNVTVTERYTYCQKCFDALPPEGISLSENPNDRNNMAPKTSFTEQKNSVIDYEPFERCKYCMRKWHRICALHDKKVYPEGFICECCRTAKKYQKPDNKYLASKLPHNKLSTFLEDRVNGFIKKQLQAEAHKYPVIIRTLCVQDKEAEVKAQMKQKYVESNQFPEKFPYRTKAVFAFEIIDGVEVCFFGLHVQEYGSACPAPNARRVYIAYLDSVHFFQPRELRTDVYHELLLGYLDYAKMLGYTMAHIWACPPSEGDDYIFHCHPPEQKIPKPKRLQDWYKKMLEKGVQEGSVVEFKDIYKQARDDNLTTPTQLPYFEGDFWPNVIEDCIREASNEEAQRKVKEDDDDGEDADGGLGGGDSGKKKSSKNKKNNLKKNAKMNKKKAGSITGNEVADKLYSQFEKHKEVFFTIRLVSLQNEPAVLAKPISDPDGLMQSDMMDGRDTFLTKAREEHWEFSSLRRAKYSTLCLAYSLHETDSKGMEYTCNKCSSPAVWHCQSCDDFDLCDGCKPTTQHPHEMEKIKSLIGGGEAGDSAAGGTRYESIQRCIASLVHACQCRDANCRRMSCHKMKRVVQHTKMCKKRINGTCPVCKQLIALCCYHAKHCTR
UniProt P46580: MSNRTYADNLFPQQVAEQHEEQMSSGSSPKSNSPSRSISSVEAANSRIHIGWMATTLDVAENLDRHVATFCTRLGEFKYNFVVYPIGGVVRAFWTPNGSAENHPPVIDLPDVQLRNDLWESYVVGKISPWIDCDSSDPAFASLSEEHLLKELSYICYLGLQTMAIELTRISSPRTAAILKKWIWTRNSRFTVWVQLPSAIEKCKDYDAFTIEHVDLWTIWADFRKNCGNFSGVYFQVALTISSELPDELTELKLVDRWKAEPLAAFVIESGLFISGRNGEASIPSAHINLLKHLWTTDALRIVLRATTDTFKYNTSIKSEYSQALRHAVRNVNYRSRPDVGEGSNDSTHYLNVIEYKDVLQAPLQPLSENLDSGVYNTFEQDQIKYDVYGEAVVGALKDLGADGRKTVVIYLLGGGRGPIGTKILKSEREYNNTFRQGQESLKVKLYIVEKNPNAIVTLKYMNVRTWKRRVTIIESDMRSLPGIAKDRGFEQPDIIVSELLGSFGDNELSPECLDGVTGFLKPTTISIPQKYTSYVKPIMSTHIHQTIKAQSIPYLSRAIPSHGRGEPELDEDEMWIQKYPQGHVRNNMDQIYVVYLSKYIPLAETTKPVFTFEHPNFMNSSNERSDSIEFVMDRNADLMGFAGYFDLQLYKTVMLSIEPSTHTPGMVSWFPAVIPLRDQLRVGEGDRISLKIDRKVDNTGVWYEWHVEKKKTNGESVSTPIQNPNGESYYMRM

Target: Flag-CBP-1(1–1620) (C. elegans) (UniProt P34545)
Test: co-IP; Flag- and Myc-tagged worm proteins co-expressed in HEK293 cells; lysis in 50 mM Tris pH 8.0, 150 mM NaCl, 0.5% sodium deoxycholate, 1% Triton X-100; anti-Flag (M2) agarose beads more than 2 h at 4°C; Western blot

binding: binds
Substance: Myc-PRMT-5 (from UniProt P46580 1-734) (enzyme)
